According to article PMC10163288:
The other results are listed elsewhere or left out.

B1: il10ra_site1_normal_mot_HHH_b2_01447_af2_000000258_0001_1_20_H_._HHH_b1_07178_af2_0001_0000300016_0000002_0 (protein)
chain: SSSSSTEEVMELIRRASELDQQGNEEEAREVLEEAQKLAEELNNFALRWAIEHLERVLNSSSSSS
B2: il10ra_site1_sap_25_mot_HHH_b2_02053_af2_000000006_0001_3_19_H_._d0e5aa17b8994cf95a3b92f728436530_0001_0001_0000100002_0000001_0_0001 (protein)
chain: SSSSDEDEEEVKELLEEAKELREEGNPEEASKVLQEAVRFAIQSQNPELLHLVWRVVHELGSSSS
B3: il10ra_site1_normal_mot_HHH_b1_01879_000000050_0001_1_18_H_._HHH_b1_04021_0001_0000300018_0000001_0 (protein)
chain: SSSSDELEELLEQLEKAVEEGDEELVIELYVQVARLAQRLNDKEVAEKVFQLLIEFWRRKSSSSS
B4: il10ra_site1_normal_mot_HHH_b1_01087_000000186_0001_1_17_H_._HHH_b1_05594_af2_0001_0000100001_0000001_0 (protein)
chain: SSSSDFERVKELIEEALKLLRNGDPEEAEKVLEEIRELAEKLNNPALRFVLRLLEELLEKLSSSS
B5: il10ra_site1_normal_mot_2c1a291787c6f40772924d4e9068d803_0001_af2_000000187_0001_34_48_H_._HHH_b2_04100_0001_0000200009_0000001_0 (protein)
chain: SSSSNEEERLVFEVAAKAYLLFDKGNEEEAKKVLKELEELAEELNDPAARAYVRALERLLSSSSS
B6: il10ra_site1_normal_mot_8756ee2cf497b5429c717dfc0c0bcfd6_0001_000000186_0001_1_13_H_._HHH_b1_05781_0001_0000300026_0000001_0 (protein)
chain: SSSSDEDAQEVAELLREIVELYNNGNPEEARRLLEEAEEIAEENNNDVLRAQLEYLRRLIDSSSS
B7: il10ra_site1_sap_17_mot_HHH_b2_00479_000000091_0001_1_12_H_._HHH_b2_01810_0001_0000100002_0000001_0_0001_af2pred_dldesign_0_af2pred (protein)
chain: SSSSSAKELVDQAIRAAKLLWEAGEPEEAQKALDTAKAIAENAKDPELLKKVEEVKEELLKSSSS
B8: il10ra_site1_normal_mot_HHH_b1_02809_af2_000000277_0001_40_57_H_._HHH_b1_06102_0001_0000800008_0000001_1 (protein)
chain: SSSSDEEIRRKIRLALQFAKALLEAGDPEAARRIVRAALQVARKDGDPIAEEVEELLEEINSSSS
B9: il10ra_site1_sap_26_mot_HHH_b2_04681_000000155_0001_43_57_H_._HHH_b2_02614_0001_0000500019_0000001_0_0001 (protein)
chain: SSSEEEVEELVEEVRRVAEEVGDPEARVSARFHASLAEWALERNDEEALKQVSLALRIFLEVFSS
B10: il10ra_site1_sap_23_mot_0eddeacbb14b769e73e254714f31e2f9_0001_af2_000000127_0001_37_51_H_._HHH_b1_00538_0001_0000500024_0000001_0_0001 (protein)
chain: SSSSSEEEEKAKELIELLEELAKEGDPEEFNRVALEAVRLVLELGDAELLRELWELFKSVSSSSS
B11: il10ra_site1_normal_mot_8756ee2cf497b5429c717dfc0c0bcfd6_0001_000000186_0001_1_13_H_._HHH_b2_06836_af2_0001_0000500019_0000001_0 (protein)
chain: SSSSTEAQEVAELLREVVELARNGNPEEAREVLREAEEIAKEGNNDVLKVQVEYLARLIEGSSSS
B12: il10ra_site1_sap_12_mot_HHH_b2_07442_000000239_0001_40_54_H_._HHH_b1_05408_0001_0000100001_0000002_0_0001 (protein)
chain: SSSSSSDIEEEVKELLEEAKHVSADEAFELFKEAIELAVEGRDPELLREVMEVLREWLNSSSSSS
B13: il10ra_site1_normal_mot_HHH_b1_02997_000000220_0001_39_52_H_._HHH_b1_06600_0001_0000400038_0000001_0_af2pred_0001 (protein)
chain: SSSSSKREEAIELLREAAELLADGNPEEAEELLEEARRLAEEANNLILRIAIEFLLEQLESSSSS
B14: il10ra_site1_sap_19_mot_HHH_b1_04015_af2_000000074_0001_1_17_H_._HHH_b1_08661_af2_0001_0000100003_0000001_0_0001_af2pred_dldesign_0_af2pred (protein)
chain: SSSREELWKAMVEVYKKATSSGDPEVIKKAEELLKRAATALAQEDEEAIAEVLKELKAFIEEVSS
B15: il10ra_site1_sap_23_mot_HHH_b2_02354_af2_000000157_0001_40_56_H_._HHH_b2_04501_af2_0001_0000800021_0000001_0_0001 (protein)
chain: SSSSDELEELLEELEEALERGDQELFAELALEVVHLAWQNGDEEVLRRVWELVEEFRRAHSSSSS
B16: il10ra_site1_normal_mot_HHH_b2_00475_000000107_0001_44_57_H_._HHH_b1_03844_0001_0000100010_0000001_0_af2pred_0001 (protein)
chain: SSSSDEERVVELLKRALELARNGNPEEAEELLEEAEQIARENNDEELRERIELAERLVRQESSSS
B17: il10ra_site1_sap_21_mot_HHH_b1_06789_af2_000000041_0001_1_20_H_._HHH_b1_00764_0001_0000200005_0000001_0_0001 (protein)
chain: SSSSDEDEELLEAAKRLIEQALKWGDPEAAKILIWSAKFLAEELGDEETQEELEELEKEVDSSSS
B18: il10ra_site1_normal_mot_HHH_b2_04275_000000272_0001_20_36_H_._HHH_b1_03080_0001_0000100004_0000001_1 (protein)
chain: SSSSDSQELYELLEKASELLHRGNPEEAKKVLEEAEEIAREANNEVLLFTIEFLLELVERHSSSS
B19: il10ra_site1_sap_16_mot_HHH_b2_03220_af2_000000223_0001_23_40_H_._HHH_b1_00394_0001_0000100012_0000002_0_0001 (protein)
chain: SSSSSTIEWSVKFVLEVAEMNAREGDPERARYQLEALLEHLRQAGNEELAEEVEHLLEELSSSSS
B20: il10ra_site1_sap_22_mot_HHH_b2_00952_af2_000000228_0001_1_18_H_._HHH_b2_08075_af2_0001_0000100004_0000001_0_0001_af2pred_0001 (protein)
chain: SSSDEEEALERLLKAVERLIEQGDDELAKLSVHQVLHLAKFAGDEEIERRARELLKELEELSSSS
B21: il10ra_site1_normal_mot_HHH_b1_06994_000000193_0001_40_55_H_._HHH_b1_03771_af2_0001_0000300016_0000002_0 (protein)
chain: SSSSDEEKELLEAAERLIEQALENGNPETAKFLILAAKILAEELGDEETLKKLEELEEEVDSSSS
B22: il10ra_site1_sap_10_mot_HHH_b2_03438_af2_000000049_0001_18_34_H_._HHH_b2_06719_0001_0000400025_0000002_0_0001_af2pred_0001 (protein)
chain: SSSSSEEDIERAVRRLLEAAKLIPDPELRKLTLRFARFAAEENNDEELEKEVEEVEKRLESSSSS
B23: il10ra_site1_sap_21_mot_HHH_b2_02053_af2_000000006_0001_3_19_H_._HHH_b1_03521_0001_0000200013_0000001_1_0001 (protein)
chain: SSSSDERAQEALELSKEAFRAALRGNPEEAQELVEEALKVAEEAGDERLAEIIRSLLEAIRSSSS
B24: il10ra_site1_sap_12_mot_HHH_b1_05084_000000041_0001_41_57_H_._HHH_b1_01386_0001_0000100008_0000001_0_0001_af2pred_0001 (protein)
chain: SSSSSEEYAKRVAELSMRASAIPDEEERRKILEEAEEVAREGNDPRLELSVKVLIEFLERSSSSS

Each binder was assayed against il10ra, Q13651 (assay: yeast display titration).

Apparent Kd, inactive:
B1 no binding seen
B2 no binding seen
B3 no binding seen
B4 no binding seen
B5 no binding seen
B6 no binding seen
B7 no binding seen
B8 no binding seen
B9 no binding seen
B10 no binding seen
B11 no binding seen
B12 no binding seen
B13 no binding seen
B14 no binding seen
B15 no binding seen
B16 no binding seen
B17 no binding seen
B18 no binding seen
B19 no binding seen
B20 no binding seen
B21 no binding seen
B22 no binding seen
B23 no binding seen
B24 no binding seen

Quoted at random: two records from the list, in no set order.
Apparent Kd, inactive:
B6 no binding seen
B14 no binding seen
